Results deposited as PubChem BioAssay AID1053208 (Peter MacCallum Cancer Centre, 2014).
Assay: 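Synthetic lethal interactions between gene loss and doxorubicin in osteosarcoma cells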 (primary screen). System: mouse osteosarcoma cells, early-passage culture from an engineered mouse model of fibroblastic bone tumour. Knock-down reagent: siRNA pool against mouse genes, 40 nM. Timing: about 120 h (48 h before drug, then 72 h with drug). Treatment: doxorubicin 100 nM for 72 h, roughly 30-40% inhibitory dose. Detection: 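Luminescent ATP signal taken as viability with or without 100 nM doxorubicin for 72 h; mean of two wells set against non-targeting siRNA and turned into robust z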. Reading the numbers: viability z-score with doxorubicin and doxorubicin viability vs non-targeting: higher = more viable cells under doxorubicin; viability z-score without drug: higher = more viable cells with knock-down alone; z-score of drug to no-drug ratio: higher = less drug sensitisation by knock-down. Call rule: 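Called active if knock-down leaves viability unchanged without drug (z within -2 to 2) but lowers it with doxorubicin (z at or under -2)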.
In all, the deposit lists about 17,000 reagents; below is a part drawn at random. 788 of all reagents (4.7%) were called active. 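Calls rest on z-score classes alone; an extra cut-off of viability at most 70% of control was not applied to them.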

combined z-score class	viability z-score with doxorubicin	viability z-score without drug	z-score of drug to no-drug ratio	doxorubicin viability vs non-targeting	outcome	gene
high cell count without drug only	0.11	2.19	-1.12	0.95	inactive	4932414J04Rik (GeneID 237694)
no change with or without drug	1.35	0.67	1.01	1.06	inactive	Ackr5 (GeneID 11536)
no change with or without drug	-0.56	-0.84	0.11	0.89	inactive	Hint3 (GeneID 66847)
no change with or without drug	0	-0.34	0.34	0.94	inactive	Obp1a (GeneID 18249)
no change with or without drug	0.34	-0.51	0.79	0.97	inactive	Or9g4b (GeneID 258564)
no change with or without drug	1.69	0.51	1.46	1.09	inactive	Siglec1 (GeneID 20612)
no change with or without drug	-0.22	0	-0.11	0.92	inactive	Mus81 (GeneID 71711)
no change with or without drug	-1.12	-1.18	-0.34	0.84	inactive	Smchd1 (GeneID 74355)
no change with or without drug	-0.22	0.51	-0.45	0.92	inactive	Atxn2l (GeneID 233871)
no change with or without drug	-0.67	-0.17	-0.45	0.88	inactive	Cpped1 (GeneID 223978)
high cell count with and without drug	2.47	2.87	0.67	1.16	inactive	Cyrib (GeneID 223601)
no change with or without drug	-0.67	-0.17	-0.45	0.88	inactive	Lad1 (GeneID 16763)
no change with or without drug	0.34	-0.17	0.56	0.97	inactive	Adamts5 (GeneID 23794)
no change with or without drug	0.45	0.17	0.45	0.98	inactive	Bhlhb9 (GeneID 70237)
no change with or without drug	0.79	0.34	0.67	1.01	inactive	Dhx33 (GeneID 216877)
low cell count with doxorubicin only	-2.25	-0.17	-2.14	0.74	active	Or7g25 (GeneID 258560)
no change with or without drug	-1.69	0.51	-1.91	0.79	inactive	Rhox2a (GeneID 75199)
no change with or without drug	1.46	0.84	1.01	1.07	inactive	Alk (GeneID 11682)
no change with or without drug	0	-0.34	0.34	0.94	inactive	Clec11a (GeneID 20256)
no change with or without drug	0.67	0	0.79	1	inactive	Hnrnph1 (GeneID 59013)
no change with or without drug	-1.12	-1.18	-0.34	0.84	inactive	Stkld1 (GeneID 279029)
no change with or without drug	0.34	-0.17	0.56	0.97	inactive	Tmem41a (GeneID 66664)
no change with or without drug	-0.67	-0.84	0	0.88	inactive	Spc24 (GeneID 67629)
no change with or without drug	1.35	0.17	1.35	1.06	inactive	Dixdc1 (GeneID 330938)
no change with or without drug	0.67	1.18	0	1	inactive	Fbn2 (GeneID 14119)
no change with or without drug	0.45	0.67	0.11	0.98	inactive	Spred1 (GeneID 114715)
no change with or without drug	-1.46	-0.84	-0.9	0.81	inactive	Phc3 (GeneID 241915)
no change with or without drug	-1.46	0.51	-1.69	0.81	inactive	Mri1 (GeneID 67873)
high cell count without drug only	1.57	2.36	0.11	1.08	inactive	Pla2g7 (GeneID 27226)
no change with or without drug	-1.12	-0.51	-0.79	0.84	inactive	Tpr (GeneID 108989)
no change with or without drug	0.9	-0.51	1.46	1.02	inactive	Dek (GeneID 110052)
no change with or without drug	-0.67	-0.51	-0.22	0.88	inactive	Gyg1 (GeneID 27357)
high cell count with doxorubicin only	2.59	0.84	2.14	1.17	inactive	Sphk2 (GeneID 56632)
no change with or without drug	1.35	0.51	1.12	1.06	inactive	Crisp3 (GeneID 11572)
no change with or without drug	1.12	0.84	0.67	1.04	inactive	Wdr55 (GeneID 67936)
no change with or without drug	0.34	1.52	-0.56	0.97	inactive	Vmn1r230 (GeneID 171231)
no change with or without drug	0.9	0.51	0.67	1.02	inactive	Prkd1 (GeneID 18760)
no change with or without drug	1.35	0.34	1.24	1.06	inactive	Gfral (GeneID 404194)
low cell count without drug only	0	-2.19	1.91	0.94	inactive	Epcip (GeneID 74387)
no change with or without drug	-0.22	0.51	-0.45	0.92	inactive	Cox6a2 (GeneID 12862)
no change with or without drug	-0.67	0.84	-1.12	0.88	inactive	Eif3j1 (GeneID 78655)
no change with or without drug	-1.46	-0.17	-1.35	0.81	inactive	Slc25a29 (GeneID 214663)
high cell count without drug only	0.79	2.19	-0.45	1.01	inactive	Casq1 (GeneID 12372)
no change with or without drug	0	0.17	0	0.94	inactive	Fxyd4 (GeneID 108017)
no change with or without drug	-0.67	-1.18	0.22	0.88	inactive	Ces3b (GeneID 13909)
no change with or without drug	0.9	0	1.01	1.02	inactive	Ovca2 (GeneID 246257)
no change with or without drug	-1.12	0.17	-1.12	0.84	inactive	Or10g9 (GeneID 259112)
no change with or without drug	0.11	1.18	-0.56	0.95	inactive	Or6c201 (GeneID 258862)
no change with or without drug	0.22	-0.17	0.45	0.96	inactive	Hdhd3 (GeneID 72748)
no change with or without drug	-0.11	-0.17	0.11	0.93	inactive	Trem1 (GeneID 58217)
